The target of this test is T1, human Hook2 Cter (amino acids 438 to 719), LexA two-hybrid bait (human) (UniProt Q96ED9).
T1 sequence: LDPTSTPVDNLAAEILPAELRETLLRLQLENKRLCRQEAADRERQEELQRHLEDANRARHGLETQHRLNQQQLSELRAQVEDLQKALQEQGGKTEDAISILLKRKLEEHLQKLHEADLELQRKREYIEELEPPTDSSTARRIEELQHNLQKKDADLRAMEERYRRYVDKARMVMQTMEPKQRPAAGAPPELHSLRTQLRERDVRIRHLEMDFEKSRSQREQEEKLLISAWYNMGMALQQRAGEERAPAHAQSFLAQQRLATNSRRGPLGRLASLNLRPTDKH
The test is described as follows: two-hybrid; L40 yeast, LexA system; Hook2 Cter in pBTM116 as bait, PAR6α variants in pACT2; selection without tryptophan, leucine and histidine with 10 mM and 5 mM 3-aminotriazole; second selection on X-Gal medium.

The chains behind the UniProt entries cited, without tags or fusion partners. Where a name states a change or a piece, a line headed by the entry shows the natural chain unless it says otherwise.
UniProt Q9NPB6: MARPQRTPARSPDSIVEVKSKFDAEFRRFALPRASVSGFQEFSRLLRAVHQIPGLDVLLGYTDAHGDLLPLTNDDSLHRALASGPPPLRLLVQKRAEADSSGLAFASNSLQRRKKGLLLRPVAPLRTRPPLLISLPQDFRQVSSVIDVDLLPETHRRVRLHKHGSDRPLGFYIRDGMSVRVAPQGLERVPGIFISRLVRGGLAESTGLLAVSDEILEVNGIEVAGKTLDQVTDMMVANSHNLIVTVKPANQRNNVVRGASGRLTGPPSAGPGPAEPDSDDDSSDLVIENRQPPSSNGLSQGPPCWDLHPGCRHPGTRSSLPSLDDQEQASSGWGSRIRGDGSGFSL

These are yes or no findings as the source states them, for the method shown. A result given as binding can be weak or reduced; the word gives no strength.

Consider “human PAR6α ΔPDZ, two-hybrid prey (from UniProt Q9NPB6)”, for which the binding entry was “binds”.
